Data set [1] in a line: Fmoc solid-phase peptide synthesis. Conditions: whole synthesis, scale 25 μmol.
The nature of data set [2]: general procedure: Fmoc solid-phase peptide synthesis. Conditions: whole synthesis, scale 25 μmol.

Consider Pro-Gln-Pro-Aci-Leu-Pro-Tyr, for which the isolated yield in data set [1] is on record as 14%. Moreover, the isolated mass in data set [2] is 4 OD275 (3.4 μmol.
